Source: publication PMC3711430
These are yes or no findings as the source states them, for the method shown. In cells and extracts the contact can be indirect.

By UniProt entry, the sequences of proteins in these tests, tags left out.
UniProt P54132: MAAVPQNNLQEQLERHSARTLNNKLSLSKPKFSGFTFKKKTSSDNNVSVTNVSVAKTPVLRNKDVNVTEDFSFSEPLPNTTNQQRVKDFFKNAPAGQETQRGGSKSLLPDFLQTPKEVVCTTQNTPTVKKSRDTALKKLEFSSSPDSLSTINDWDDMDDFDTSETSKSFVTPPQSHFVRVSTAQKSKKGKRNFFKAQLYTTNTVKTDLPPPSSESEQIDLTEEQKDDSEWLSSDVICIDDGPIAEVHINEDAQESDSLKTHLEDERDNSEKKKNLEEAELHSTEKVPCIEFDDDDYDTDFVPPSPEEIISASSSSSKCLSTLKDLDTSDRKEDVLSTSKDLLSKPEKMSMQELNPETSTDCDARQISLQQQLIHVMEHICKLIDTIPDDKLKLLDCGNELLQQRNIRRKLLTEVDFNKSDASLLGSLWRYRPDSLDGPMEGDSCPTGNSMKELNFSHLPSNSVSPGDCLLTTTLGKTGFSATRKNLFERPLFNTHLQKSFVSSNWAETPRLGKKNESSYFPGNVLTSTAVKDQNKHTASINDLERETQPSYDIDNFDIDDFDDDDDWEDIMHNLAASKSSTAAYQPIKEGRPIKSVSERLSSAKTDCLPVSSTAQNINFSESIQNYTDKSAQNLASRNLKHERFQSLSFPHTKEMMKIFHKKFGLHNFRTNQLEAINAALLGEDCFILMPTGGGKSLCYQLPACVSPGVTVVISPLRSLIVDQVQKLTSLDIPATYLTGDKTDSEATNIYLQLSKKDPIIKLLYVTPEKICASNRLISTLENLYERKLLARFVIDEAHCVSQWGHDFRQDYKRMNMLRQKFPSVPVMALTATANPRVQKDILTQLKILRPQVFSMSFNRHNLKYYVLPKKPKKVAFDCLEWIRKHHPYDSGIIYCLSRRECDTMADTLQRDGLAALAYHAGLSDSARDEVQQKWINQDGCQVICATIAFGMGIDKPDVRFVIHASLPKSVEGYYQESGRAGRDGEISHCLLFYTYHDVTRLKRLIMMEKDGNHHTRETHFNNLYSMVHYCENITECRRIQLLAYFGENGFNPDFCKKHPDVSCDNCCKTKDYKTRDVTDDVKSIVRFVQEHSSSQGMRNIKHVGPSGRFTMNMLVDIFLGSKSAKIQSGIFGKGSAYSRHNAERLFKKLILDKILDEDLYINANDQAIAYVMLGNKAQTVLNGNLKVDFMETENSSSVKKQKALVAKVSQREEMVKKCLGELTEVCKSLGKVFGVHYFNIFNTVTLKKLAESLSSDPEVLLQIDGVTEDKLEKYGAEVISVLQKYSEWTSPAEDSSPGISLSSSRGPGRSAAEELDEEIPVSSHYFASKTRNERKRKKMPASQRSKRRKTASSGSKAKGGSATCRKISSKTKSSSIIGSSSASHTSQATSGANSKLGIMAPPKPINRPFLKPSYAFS
UniProt Q9NVI1: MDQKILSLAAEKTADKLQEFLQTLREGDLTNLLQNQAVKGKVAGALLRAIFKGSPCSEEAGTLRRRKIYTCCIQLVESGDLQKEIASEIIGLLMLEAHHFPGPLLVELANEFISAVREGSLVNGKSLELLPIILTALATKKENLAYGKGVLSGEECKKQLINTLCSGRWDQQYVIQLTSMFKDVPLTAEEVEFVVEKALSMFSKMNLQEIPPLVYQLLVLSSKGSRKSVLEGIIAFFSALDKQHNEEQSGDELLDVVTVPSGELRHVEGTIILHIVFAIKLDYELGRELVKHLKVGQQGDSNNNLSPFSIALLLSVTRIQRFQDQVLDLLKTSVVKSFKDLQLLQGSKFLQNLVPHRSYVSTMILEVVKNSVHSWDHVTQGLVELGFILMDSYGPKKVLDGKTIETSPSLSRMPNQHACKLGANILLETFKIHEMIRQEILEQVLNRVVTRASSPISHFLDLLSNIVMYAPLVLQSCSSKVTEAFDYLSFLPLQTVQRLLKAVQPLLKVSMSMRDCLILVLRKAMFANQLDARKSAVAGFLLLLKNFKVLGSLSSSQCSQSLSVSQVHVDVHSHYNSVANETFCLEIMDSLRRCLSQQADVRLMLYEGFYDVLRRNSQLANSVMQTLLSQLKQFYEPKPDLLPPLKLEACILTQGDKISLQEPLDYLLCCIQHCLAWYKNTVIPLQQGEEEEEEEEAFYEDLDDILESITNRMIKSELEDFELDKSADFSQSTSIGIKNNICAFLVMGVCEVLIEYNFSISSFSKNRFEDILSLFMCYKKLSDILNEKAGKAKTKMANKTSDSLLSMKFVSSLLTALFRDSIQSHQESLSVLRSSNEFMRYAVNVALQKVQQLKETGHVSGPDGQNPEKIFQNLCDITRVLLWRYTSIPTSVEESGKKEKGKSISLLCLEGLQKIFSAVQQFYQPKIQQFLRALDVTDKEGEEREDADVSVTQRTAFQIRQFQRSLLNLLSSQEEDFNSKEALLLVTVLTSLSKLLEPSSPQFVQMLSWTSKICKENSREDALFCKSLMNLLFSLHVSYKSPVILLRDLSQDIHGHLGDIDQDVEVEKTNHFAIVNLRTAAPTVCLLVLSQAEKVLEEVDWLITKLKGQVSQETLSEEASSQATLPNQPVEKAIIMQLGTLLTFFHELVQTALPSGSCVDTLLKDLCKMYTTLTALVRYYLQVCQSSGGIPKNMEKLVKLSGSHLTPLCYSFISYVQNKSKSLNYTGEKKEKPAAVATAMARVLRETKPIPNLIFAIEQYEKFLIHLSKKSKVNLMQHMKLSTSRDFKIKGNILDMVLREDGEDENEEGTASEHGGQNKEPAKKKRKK

Molecular target: human BLM (Bloom's helicase) (human (endogenous in PD20 and PD20 + D2 fibroblasts)) (UniProt P54132)
Experiment: co-IP; whole cell extracts of PD20 + D2 (and PD20) fibroblasts, untreated or aphidicolin-treated; precleared with rabbit IgG; IP with FANCD2 or BLM antibody at 4°C overnight, Sepharose 4B beads; buffer 10 mM Tris pH 7.4, 150 mM NaCl, 1% NP-40, 0.5% sodium deoxycholate, 1 mM EDTA, 1 mM DTT; western blot

In the case of “human FANCI (from UniProt Q9NVI1 1-1328)”, the binding is reported as “no binding”.
